# Values of other authors as cited in patent US11903925B2, “Compositions for preventing and treating pulmonary injury due to ionizing radiation or cytotoxic drugs” (RepoCeuticals A/S, priority 2015, dated 2024).
# Some of these results come from one statement about several compounds together.
# Tested on: lung
# Conditions: use of cytotoxic chemotherapeutic agents for cancer; cited from earlier work
structure (smiles),measurement,value
CN(Cc1cnc2nc(N)nc(N)c2n1)c1ccc(C(=O)N[C@@H](CCC(=O)O)C(=O)O)cc1 [methotrexate],overall rate of pulmonary damage,less than 1%
